Reference: publication PMC7476095
Where a chain is given by its changes, count along the chain named. Names may count otherwise. No constants are given. Whether binding was seen depends on the method and setting. In cells and extracts the contact can be indirect. Some entries that bind do so weakly or less than the wild type. For part of these data: Sequences can lack the tags named with a protein.

Amino acid sequences for entries named in this document (tags omitted).
UniProt P13010: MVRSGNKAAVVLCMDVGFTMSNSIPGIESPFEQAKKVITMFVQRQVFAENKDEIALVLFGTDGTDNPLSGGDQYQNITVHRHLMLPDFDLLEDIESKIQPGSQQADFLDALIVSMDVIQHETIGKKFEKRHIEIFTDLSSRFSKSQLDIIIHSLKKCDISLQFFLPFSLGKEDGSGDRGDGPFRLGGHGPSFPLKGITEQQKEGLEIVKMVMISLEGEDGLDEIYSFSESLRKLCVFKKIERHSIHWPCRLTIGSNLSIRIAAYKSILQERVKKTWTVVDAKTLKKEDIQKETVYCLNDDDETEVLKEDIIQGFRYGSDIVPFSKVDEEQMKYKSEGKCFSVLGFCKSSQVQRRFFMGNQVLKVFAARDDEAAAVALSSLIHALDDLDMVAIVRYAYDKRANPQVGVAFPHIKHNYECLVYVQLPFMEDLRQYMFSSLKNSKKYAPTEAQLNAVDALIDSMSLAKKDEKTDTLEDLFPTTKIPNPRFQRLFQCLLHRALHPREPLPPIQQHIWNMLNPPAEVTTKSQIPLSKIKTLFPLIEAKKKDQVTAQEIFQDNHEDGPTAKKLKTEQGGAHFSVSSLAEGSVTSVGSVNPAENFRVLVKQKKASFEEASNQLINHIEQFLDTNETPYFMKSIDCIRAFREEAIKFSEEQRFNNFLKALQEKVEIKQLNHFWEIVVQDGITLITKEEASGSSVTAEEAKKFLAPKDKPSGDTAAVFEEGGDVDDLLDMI

T1: FLAG-tagged wild type MAD1 (mitotic arrest-deficient protein 1) (UniProt Q9Y6D9)
T1 sequence: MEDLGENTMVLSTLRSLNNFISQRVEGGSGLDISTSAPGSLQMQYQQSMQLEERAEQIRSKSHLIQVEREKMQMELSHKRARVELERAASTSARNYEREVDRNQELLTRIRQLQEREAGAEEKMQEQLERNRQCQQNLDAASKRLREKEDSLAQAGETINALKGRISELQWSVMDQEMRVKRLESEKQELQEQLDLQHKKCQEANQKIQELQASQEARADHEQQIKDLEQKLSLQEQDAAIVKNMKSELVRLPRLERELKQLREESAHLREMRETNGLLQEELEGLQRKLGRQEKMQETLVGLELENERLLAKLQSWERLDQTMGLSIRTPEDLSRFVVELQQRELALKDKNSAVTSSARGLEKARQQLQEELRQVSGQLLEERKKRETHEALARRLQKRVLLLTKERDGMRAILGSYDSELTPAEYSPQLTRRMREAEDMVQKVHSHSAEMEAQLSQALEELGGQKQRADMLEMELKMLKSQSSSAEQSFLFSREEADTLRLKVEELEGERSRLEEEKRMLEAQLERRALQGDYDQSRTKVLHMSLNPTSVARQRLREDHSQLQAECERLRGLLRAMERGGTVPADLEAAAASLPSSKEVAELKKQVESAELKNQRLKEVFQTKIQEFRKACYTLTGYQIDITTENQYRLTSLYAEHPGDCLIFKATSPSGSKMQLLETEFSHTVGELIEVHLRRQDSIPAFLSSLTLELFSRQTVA

T2: FLAG-tagged MAD1-S214A mutant (UniProt Q9Y6D9)
T2 sequence: T1 sequence with S214A

B1: FLAG-tagged wild type MAD1 (mitotic arrest-deficient protein 1) (protein, UniProt Q9Y6D9 1-718)
chain: T1 sequence
B2: FLAG-tagged MAD1-S214A mutant (protein, UniProt Q9Y6D9 1-718)
chain: T1 sequence with S214A
B3: MAD1 (mitotic arrest-deficient protein 1), endogenous (protein, UniProt Q9Y6D9 1-718)
chain: T1 sequence
B4: p-MAD1 (MAD1 phosphorylated on serine 214), endogenous (protein, UniProt Q9Y6D9 1-718)
chain: T1 sequence
modifications: phosphoserine at 214

What was measured:
[1] = target: T1, FLAG-tagged wild type MAD1 (mitotic arrest-deficient protein 1); experiment: co-IP; anti-FLAG-M2 agarose beads with whole cell lysates of HeLa or HCT116 cells transiently expressing FLAG-MAD1 (wild type or S214A), overnight at 4 °C, washed with TBS; cells mock-treated or IR (6 Gy), harvested 2 h after IR; blotted for KU80
[2] = target: T2, FLAG-tagged MAD1-S214A mutant; experiment: as above
[3] = target: KU80 (human (endogenous in HeLa and HCT116)) (UniProt P13010); experiment: co-IP; anti-KU80 antibody precipitates from HeLa or HCT116 cells transiently expressing FLAG-MAD1 (wild type or S214A); cells mock-treated or IR (6 Gy), harvested 2 h after IR; immunoblot
[4] = target: KU80 (human (endogenous in HeLa and HCT116)) (UniProt P13010); experiment: co-IP; anti-KU80 antibody precipitates from HCT116 cells, with or without IR; immunoblot for MAD1 and p-MAD1

Molecule | binding [3] | binding [4] | further results
KU80 (from UniProt P13010 1-732) |  |  | binding [1]: binds; binding [2]: binds
B1 | binds |  | 
B2 | binds |  | 
B3 |  | binds | 
B4 |  | binds | 
